Assay [1] addresses T1, sIL6R Fc dimer, P08887.
T1 chain: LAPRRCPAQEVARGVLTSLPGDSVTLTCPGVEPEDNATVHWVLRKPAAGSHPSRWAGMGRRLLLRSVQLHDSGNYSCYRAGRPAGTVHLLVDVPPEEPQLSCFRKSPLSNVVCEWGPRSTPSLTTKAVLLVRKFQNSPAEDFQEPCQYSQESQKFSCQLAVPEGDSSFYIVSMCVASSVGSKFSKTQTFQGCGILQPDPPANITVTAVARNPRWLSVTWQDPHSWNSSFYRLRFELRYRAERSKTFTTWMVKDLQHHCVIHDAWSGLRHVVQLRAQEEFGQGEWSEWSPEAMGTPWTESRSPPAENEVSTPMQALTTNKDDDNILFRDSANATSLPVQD
Kind of assay: SPR Biacore T100, binder captured by anti-human Fc, single 100 nM injection. The conditions noted are these: remark: other sources report otherwise.

Assay [2] deals with T2, recombinant human soluble IL6 receptor (human), P08887.
T2 chain: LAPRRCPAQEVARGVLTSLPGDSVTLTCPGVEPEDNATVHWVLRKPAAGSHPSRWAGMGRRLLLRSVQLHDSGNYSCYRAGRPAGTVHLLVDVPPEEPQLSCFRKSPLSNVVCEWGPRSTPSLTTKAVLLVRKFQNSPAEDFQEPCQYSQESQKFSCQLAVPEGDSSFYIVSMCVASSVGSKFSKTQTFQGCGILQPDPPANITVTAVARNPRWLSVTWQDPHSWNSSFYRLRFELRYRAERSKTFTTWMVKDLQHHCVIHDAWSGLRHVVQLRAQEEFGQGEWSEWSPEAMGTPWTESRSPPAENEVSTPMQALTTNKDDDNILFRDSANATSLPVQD
Nature of the assay: SPR Biacore T100. As to conditions: remark: other sources report otherwise.

The values that follow come from US20110142851A1.

No constants are given. Whether binding was seen depends on the method and setting. Some binding calls cover weakened binding; strength is not graded here. For some assays here: Sequences can lack the tags named with a protein.

B1: TRU(XT6)-1025 (Fc fusion)
chain: LPAQVAFTPYAPEPGSTCRLREYYDQTAQMCCSKCSPGQHAKVFCTKTSDTVCDSCEDSTYTQLWNWVPECLSCGSRCSSDQVETQACTREQNRICTCRPGWYCALSKQEGCRLCAPLRKCRPGFGVARPGTETSDVVCKPCAPGTFSNTTSSTDICRPHQICNVVAIPGNASMDAVCTSTSPTRSMAPGAVHLPQPVSTRSQHTQPTPEPSTAPSTSFLLPMGPSPPAEGSTGDTGEPKSSDKTHTCPPCPAPEAAGAPSVFLFPPKPKDTLMISRTPEVTCVVVDVSHEDPEVKFNWYVDGVEVHNAKTKPREEQYNSTYRVVSVLTVLHQDWLNGKAYACAVSNKALPAPIEKTISKAKGQPREPQVYTLPPSRDELTKNQVSLTCLVKGFYPSDIAVEWESNGQPENNYKTTPPVLDSDGSFFLYSKLTVDKSRWQQGNVFSCSVMHEALHNHYTQKSLSLSPGQRHNNSSLNTRTQKARHSPNSEVQLLESGGGLVQPGGSLRLSCAASGFTFSHYGMHWVRQAPGKGLEWVSSIYPGMTQYADSVKGRFTISRDNSKNTLYLQMNSLRAEDTAVYYCARDRGSGIDAFDIWGQGTMVTVSSGGGGSGGGGSGGGGSQSELTQPPSVSVSPGQTATVSCSGEKLGDRYAWWYQQKAGQSPVLVIYQDTKRPSGVPDRFSGSNSGTSASLVISGPQSEDEADYYCAAWDDSLKGVVFGGGSKLTVL
As to B1, the binding result in assay [1] and in assay [2] was “binds” each time.
